Reference: PMC10307882
Results are given in words; binding and its absence hold for the method and conditions named. Binding seen in cells or lysates may run through a third protein. Some entries that bind do so weakly or less than the wild type. Each block holds one molecule with its values, some of them ahead of it.

Protein sequences, listed by entry. Tags and fused reporters are not part of them.
UniProt Q9Z120: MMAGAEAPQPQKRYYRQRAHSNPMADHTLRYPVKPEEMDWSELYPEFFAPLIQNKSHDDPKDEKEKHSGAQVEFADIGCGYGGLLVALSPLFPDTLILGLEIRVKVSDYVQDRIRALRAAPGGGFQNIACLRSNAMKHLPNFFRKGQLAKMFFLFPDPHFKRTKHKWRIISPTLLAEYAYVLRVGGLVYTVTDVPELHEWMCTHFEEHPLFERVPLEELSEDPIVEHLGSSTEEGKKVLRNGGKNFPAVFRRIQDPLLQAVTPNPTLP
UniProt P46938: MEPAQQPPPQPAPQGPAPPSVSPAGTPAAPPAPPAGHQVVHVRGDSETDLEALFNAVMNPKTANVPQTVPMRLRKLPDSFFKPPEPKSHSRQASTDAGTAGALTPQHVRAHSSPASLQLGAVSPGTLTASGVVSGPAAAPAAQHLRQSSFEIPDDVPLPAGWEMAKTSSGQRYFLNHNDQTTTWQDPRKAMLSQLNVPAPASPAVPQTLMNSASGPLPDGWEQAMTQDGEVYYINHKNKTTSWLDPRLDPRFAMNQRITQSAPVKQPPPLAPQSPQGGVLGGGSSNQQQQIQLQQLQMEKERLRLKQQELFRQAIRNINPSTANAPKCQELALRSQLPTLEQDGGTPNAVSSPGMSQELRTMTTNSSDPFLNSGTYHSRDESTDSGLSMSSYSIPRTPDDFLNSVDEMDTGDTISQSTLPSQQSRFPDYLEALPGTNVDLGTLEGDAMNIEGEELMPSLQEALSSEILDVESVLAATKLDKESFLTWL

Tests used:
[1] = target: T1, TMEM11 (mouse (endogenous in mouse cardiomyocytes)) (UniProt Q8BK08); assay: co-IP; immunoprecipitation with anti-TMEM11 antibody or anti-METTL1 antibody followed by western blotting; 'in vivo'; source of the lysate not told
T1 sequence: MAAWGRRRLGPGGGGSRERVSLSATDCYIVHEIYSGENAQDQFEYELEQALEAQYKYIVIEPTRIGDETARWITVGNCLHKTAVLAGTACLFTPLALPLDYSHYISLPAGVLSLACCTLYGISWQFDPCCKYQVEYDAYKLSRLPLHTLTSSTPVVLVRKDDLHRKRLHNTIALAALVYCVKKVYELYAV

[2] = target: T1, TMEM11 (mouse (endogenous in mouse cardiomyocytes)); assay: co-IP; co-immunoprecipitation in cardiomyocytes
[3] = target: METTL1 (mouse (endogenous in mouse cardiomyocytes)) (UniProt Q9Z120); assay: co-IP; immunoprecipitation with anti-TMEM11 antibody or anti-METTL1 antibody followed by western blotting; 'in vivo'; source of the lysate not told

binding [1]: binds
Molecule: METTL1 (from UniProt Q9Z120 1-268) (enzyme)

binding [2]: no binding
Molecule: YAP (from UniProt P46938 1-488)

binding [3]: binds
B1: TMEM11 (protein, UniProt Q8BK08 1-190)
chain: T1 sequence
